Results published in paper doi:10.1101/2023.11.14.566657.
For at least one entry, the source does not settle the construct or the ends of the probe. At least one verdict was read from the data and is not stated in words by the source.

The chains behind the UniProt entries cited, without tags or fusion partners. Where a name states a change or a piece, a line headed by the entry shows the natural chain unless it says otherwise.
UniProt P43351: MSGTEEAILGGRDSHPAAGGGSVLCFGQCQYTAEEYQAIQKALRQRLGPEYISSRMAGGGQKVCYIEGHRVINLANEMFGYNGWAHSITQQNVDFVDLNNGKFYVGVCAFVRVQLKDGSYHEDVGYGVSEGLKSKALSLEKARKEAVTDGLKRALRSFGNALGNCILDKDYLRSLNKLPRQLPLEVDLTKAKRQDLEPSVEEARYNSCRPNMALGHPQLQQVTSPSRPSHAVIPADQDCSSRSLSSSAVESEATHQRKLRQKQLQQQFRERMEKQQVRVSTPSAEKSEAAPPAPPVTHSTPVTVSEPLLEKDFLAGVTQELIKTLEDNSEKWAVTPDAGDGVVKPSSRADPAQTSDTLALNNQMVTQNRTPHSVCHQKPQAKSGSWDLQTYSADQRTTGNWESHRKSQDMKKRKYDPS

Biological target: RAD52 wild type (human) (UniProt P43351)
Assay: mass photometry
Conditions: 200 nM DNA, spool-like double ring rare

TTTTTTTTTTTTTTTTTTTTTTTTTTTTTTTTTTTTTTTTTTTTTTTTTTTTTTTTTTTTTTTTTTTTTTTTTTTTTTTTTTTTTTTTTT [dT90]
binding result: binds
